Data published in patent US20030171329A1, “Stable compositions comprising tezacitabine” (priority 2002, published 2003).
Read-outs that look alike come from different tables or passages of the source. This continues a long series; more values of the same kind are listed elsewhere.

Procedure: In this study the stabilty of FMdC glutamate and glycine buffers at pH 8.5 to 9.5 was evaluated at various storage conditions (5°, 25°, 35°, 45°, and 55° C.). FMdC solutions were made up at 1 mg/mL in 7.1 mg/mL monosodium glutamate monohydrate (38 mM) or 2.8 mg/mL glycine (37 mM) and pH adjusted to target with sodium hydroxide. Solution samples were placed in stoppered glass vials and stored at the various temperatures. […] Detention was by UV at 268 nm.
The higher-temperature data can be evaluated further by Arrhenius analysis to predict shelf lives at lower temperatures. First-order rate constants are determined by fitting the concentration and time data to an equation of the form C(t)=C(0)·exp (−k·t), where C(t) is the concentration at time t, C(0) is the concentration at time 0, t is the time, and k is the first-order rate constant. The rate constants are in turn fitted to an equation of the form k (T)=A·exp (−Ea/RT), where k(T) is the rate constant at temperature T, Ea is the energy of activation, R is the gas constant, T is the absolute temperature (in ° K), and A is a constant.

[1] = Glutamate pH 8.5 buffer, 5° C., 0 weeks
[2] = Glutamate pH 9.0 buffer, 5° C., 0 weeks
[3] = Glutamate pH 9.0 buffer, 55° C., 16 weeks
[4] = Glutamate pH 9.5 buffer, 5° C., 0 weeks
[5] = Glutamate pH 9.5 buffer, 55° C., 16 weeks
[6] = Glycine pH 9.0 buffer, 5° C., 0 weeks
[7] = Glycine pH 9.0 buffer, 55° C., 16 weeks

FMdC [1]: 1.00 mg/mL
pH [1]: 8.50
pH (Glutamate pH 8.5 buffer, 45° C., 16 weeks): 8.28
pH (Glutamate pH 8.5 buffer, 45° C., 24 weeks): 5.75
pH (Glutamate pH 8.5 buffer, 55° C., 0 weeks): 8.50
pH (Glutamate pH 8.5 buffer, 55° C., 4 weeks): 7.56
FMdC [2]: 1.01 mg/mL
pH [2]: 9.00
pH (Glutamate pH 9.0 buffer, 45° C., 16 weeks): 9.06
pH (Glutamate pH 9.0 buffer, 45° C., 24 weeks): 9.08
pH (Glutamate pH 9.0 buffer, 55° C., 0 weeks): 9.00
pH (Glutamate pH 9.0 buffer, 55° C., 4 weeks): 9.01
FMdC [3]: 0.60 mg/mL
pH [3]: 8.44
FMdC [4]: 1.00 mglmL
pH [4]: 9.50
pH (Glutamate pH 9.5 buffer, 45° C., 16 weeks): 9.68
pH (Glutamate pH 9.5 buffer, 45° C., 24 weeks): 9.62
pH (Glutamate pH 9.5 buffer, 55° C., 0 weeks): 9.50
pH (Glutamate pH 9.5 buffer, 55° C., 4 weeks): 9.62
FMdC [5]: 0.69 mglmL
pH [5]: 9.97
FMdC [6]: 1.00 mg/mL
pH [6]: 9.00
pH (Glycine pH 9.0 buffer, 45° C., 4 weeks): 9.30
pH (Glycine pH 9.0 buffer, 45° C., 16 weeks): 9.29
pH (Glycine pH 9.0 buffer, 45° C., 24 weeks): 9.31
pH (Glycine pH 9.0 buffer, 55° C., 0 weeks): 9.00
pH (Glycine pH 9.0 buffer, 55° C., 4 weeks): 9.27
FMdC (Glycine pH 9.0 buffer, 55° C., 8 weeks): 0.79 mg/mL
FMdC [7]: 0.63 mg/mL
pH [7]: 8.92
SMILES: Nc1ccn([C@@H]2O[C@H](CO)[C@@H](O)/C2=C\F)c(=O)n1 [FMdC, (E)-2′-deoxy-2′-(fluoromethylene)cytidine]
